These are yes or no findings as the source states them, for the method shown.
B1: full-length human caspase 10 (protein, UniProt Q92851 1-521)
chain: MKSQGQHWYSSSDKNCKVSFREKLLIIDSNLGVQDVENLKFLCIGLVPNKKLEKSSSASDVFEHLLAEDLLSEEDPFFLAELLYIIRQKKLLQHLNCTKEEVERLLPTRQRVSLFRNLLYELSEGIDSENLKDMIFLLKDSLPKTEMTSLSFLAFLEKQGKIDEDNLTCLEDLCKTVVPKLLRNIEKYKREKAIQIVTPPVDKEAESYQGEEELVSQTDVKTFLEALPQESWQNKHAGSNGNRATNGAPSLVSRGMQGASANTLNSETSTKRAAVYRMNRNHRGLCVIVNNHSFTSLKDRQGTHKDAEILSHVFQWLGFTVHIHNNVTKVEMEMVLQKQKCNPAHADGDCFVFCILTHGRFGAVYSSDEALIPIREIMSHFTALQCPRLAEKPKLFFIQACQGEEIQPSVSIEADALNPEQAPTSLQDSIPAEADFLLGLATVPGYVSFRHVEEGSWYIQSLCNHLKKLVPRMLKFLEKTMEIRGRKRTVWGAKQISATSLPTAISAQTPRPPMRRWSSVS
B2: full-length human caspase 6 (protein, UniProt P55212 1-293)
chain: MSSASGLRRGHPAGGEENMTETDAFYKREMFDPAEKYKMDHRRRGIALIFNHERFFWHLTLPERRGTCADRDNLTRRFSDLGFEVKCFNDLKAEELLLKIHEVSTVSHADADCFVCVFLSHGEGNHIYAYDAKIEIQTLTGLFKGDKCHSLVGKPKIFIIQACRGNQHDVPVIPLDVVDNQTEKLDTNITEVDAASVYTLPAGADFLMCYSVAEGYYSHRETVNGSWYIQDLCEMLGKYGSSLEFTELLTLVNRKVSQRRVDFCKDPSAIGKKQVPCFASMLTKKLHFFPKSN
B3: full-length human caspase 2 (protein, UniProt P42575 1-452)
chain: MAAPSAGSWSTFQHKELMAADRGRRILGVCGMHPHHQETLKKNRVVLAKQLLLSELLEHLLEKDIITLEMRELIQAKVGSFSQNVELLNLLPKRGPQAFDAFCEALRETKQGHLEDMLLTTLSGLQHVLPPLSCDYDLSLPFPVCESCPLYKKLRLSTDTVEHSLDNKDGPVCLQVKPCTPEFYQTHFQLAYRLQSRPRGLALVLSNVHFTGEKELEFRSGGDVDHSTLVTLFKLLGYDVHVLCDQTAQEMQEKLQNFAQLPAHRVTDSCIVALLSHGVEGAIYGVDGKLLQLQEVFQLFDNANCPSLQNKPKMFFIQACRGDETDRGVDQQDGKNHAGSPGCEESDAGKEKLPKMRLPTRSDMICGYACLKGTAAMRNTKRGSWYIEALAQVFSERACDMHVADMLVKVNALIKDREGYAPGTEFHRCKEMSEYCSTLCRHLYLFPGHPPT
B4: full-length human CASP4 (protein, UniProt P49662 1-377)
chain: MAEGNHRKKPLKVLESLGKDFLTGVLDNLVEQNVLNWKEEEKKKYYDAKTEDKVRVMADSMQEKQRMAGQMLLQTFFNIDQISPNKKAHPNMEAGPPESGESTDALKLCPHEEFLRLCKERAEEIYPIKERNNRTRLALIICNTEFDHLPPRNGADFDITGMKELLEGLDYSVDVEENLTARDMESALRAFATRPEHKSSDSTFLVLMSHGILEGICGTVHDEKKPDVLLYDTIFQIFNNRNCLSLKDKPKVIIVQACRGANRGELWVRDSPASLEVASSQSSENLEEDAVYKTHVEKDFIAFCSSTPHNVSWRDSTMGSIFITQLITCFQKYSWCCHLEEVFRKVQQSFETPRAKAQMPTIERLSMTRYFYLFPGN
B5: full-length human caspase 7 (protein, UniProt P55210 1-303)
chain: MADDQGCIEEQGVEDSANEDSVDAKPDRSSFVPSLFSKKKKNVTMRSIKTTRDRVPTYQYNMNFEKLGKCIIINNKNFDKVTGMGVRNGTDKDAEALFKCFRSLGFDVIVYNDCSCAKMQDLLKKASEEDHTNAACFACILLSHGEENVIYGKDGVTPIKDLTAHFRGDRCKTLLEKPKLFFIQACRGTELDDGIQADSGPINDTDANPRYKIPVEADFLFAYSTVPGYYSWRSPGRGSWFVQALCSILEEHGKDLEIMQILTRVNDRVARHFESQSDDPHFHEKKQIPCVVSMLTKELYFSQ

target: Shigella OspC2 (Shigella); test: two-hybrid; yeast MaV103 and MaV203, 96-well format; GAL4BD-OspC effector and GAL4AD-caspase; selection on medium lacking leucine, tryptophan and histidine with 40 mM 3-amino-1,2,4-triazole; growth scored after 7 days at 30°C

| Binder | binding |
| --- | --- |
| B1 | no binding |
| B2 | no binding |
| B3 | no binding |
| B4 | no binding |
| B5 | no binding |

— PMC12977621
